Some of these results come from one statement about several compounds together. Oligonucleotides are written 5' to 3', each unit as a sugar letter and its base; * is a phosphorothioate linkage, no mark a phosphodiester; rarer units and linkages stand in square brackets, end groups in braces. Plain capitals give the bases only. l = locked nucleic acid (LNA); [5mC] = 5-methylcytosine; d = 2'-deoxy (DNA)
System: human SMS2
Assay: Knock down of SMS2 by LNA Gapmer antisense oligonucleotides in HEK293 cells (quantitative PCR)
Type: cell-based
Settings: 5 μM added directly to culture, quantitative PCR after 72 hours, G3PDH endogenous control

Substance: SMS2-13-006: LNA Gapmer antisense oligonucleotide for SMS2, TGCagatgatcCC (antisense lT*lG*l[5mC]*dA*dG*dA*dT*dG*dA*dT*dC*l[5mC]*l[5mC])
- SMS2 gene expression suppression in comparison to saline administered cells (antisense-free cell): ≥ 50%

Substance: SMS2-13-007: LNA Gapmer antisense oligonucleotide for SMS2, CGTgttgtgatAT (antisense l[5mC]*lG*lT*dG*dT*dT*dG*dT*dG*dA*dT*lA*lT)
- SMS2 gene expression suppression in comparison to saline administered cells (antisense-free cell): ≥ 50%

Substance: SMS2-13-008: LNA Gapmer antisense oligonucleotide for SMS2, ACTtgtotgggAG (antisense lA*l[5mC]*lT*dT*dG*dT*dC*dT*dG*dG*dG*lA*lG)
- SMS2 gene expression suppression in comparison to saline administered cells (antisense-free cell): ≥ 50%

Substance: SMS2-13-012: LNA Gapmer antisense oligonucleotide for SMS2, CCAgaagtgacGA (antisense l[5mC]*l[5mC]*lA*dG*dA*dA*dG*dT*dG*dA*dC*lG*lA)
- SMS2 gene expression suppression in comparison to saline administered cells (antisense-free cell): ≥ 50%

Substance: SMS2-13-014: LNA Gapmer antisense oligonucleotide for SMS2, TTGcctgagagTC (antisense lT*lT*lG*dC*dC*dT*dG*dA*dG*dA*dG*lT*l[5mC])
- SMS2 gene expression suppression in comparison to saline administered cells (antisense-free cell): ≥ 50%

Substance: SMS2-13-017: LNA Gapmer antisense oligonucleotide for SMS2, AAGttttgctgTC (antisense lA*lA*lG*dT*dT*dT*dT*dG*dC*dT*dG*lT*l[5mC])
- SMS2 gene expression suppression in comparison to saline administered cells (antisense-free cell): ≥ 50%

Substance: SMS2-13-019: LNA Gapmer antisense oligonucleotide for SMS2, TTGaagcagccAG (antisense lT*lT*lG*dA*dA*dG*dC*dA*dG*dC*dC*lA*lG)
- SMS2 gene expression suppression in comparison to saline administered cells (antisense-free cell): ≥ 50%

From US20140256793A1, “MEDICAMENT FOR DISEASES ASSOCIATED WITH AMYLOID beta AND SCREENING THEREOF” (National University Corporation Hokkaido University, priority 2011, published 2014)
